From publication PMC4349864
Results are given in words; binding and its absence hold for the method and conditions named. Binding seen in cells or lysates may run through a third protein.

Sequences of proteins named here, by UniProt entry; tags and fusion partners are left off.
UniProt P61586: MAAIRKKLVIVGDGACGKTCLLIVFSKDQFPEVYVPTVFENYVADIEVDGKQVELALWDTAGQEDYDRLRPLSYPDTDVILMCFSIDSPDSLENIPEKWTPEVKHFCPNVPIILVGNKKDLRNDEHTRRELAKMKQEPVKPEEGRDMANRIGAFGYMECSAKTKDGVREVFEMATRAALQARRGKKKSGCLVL

Biological target: glutathione S-transferase (GST)-fused VopO (Vibrio parahaemolyticus) (UniProt Q87GI7)
Test: pull-down; purified GST-VopO and glutathione beads incubated with HeLa cell lysate (RIPA buffer) at 4°C for 4 h; beads washed with RIPA buffer; western blot of the eluate; only the target purified

**Q.** How did the binding turn out when “RhoA (endogenous, HeLa cell lysate) (from UniProt P61586 1-193)” was run?
**A.** The binding was “no binding”.
